# PubChem BioAssay AID1259254 | NCATS | 2017
# Test: 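Genome-wide screen for genes that prevent DNA re-replication in cancer cells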 (primary screen)
# Cells: human HCT116 colorectal cancer cells
# Reagent: single siRNA against human genes
# Duration: 3 days
# Read-out: 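Imaged Hoechst DNA stain sorts each cell into a cycle phase by DNA amount; per plate, G2 fraction set to 0% for non-targeting and 100% for GMNN siRNA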
# Reading the numbers: G2 robust z-score and G2 cells, % of GMNN control: higher = more G2 cells, more excess DNA replication; raw share of cells in G2: higher = larger share of cells with G2 DNA content
# Rule for the call: 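An siRNA counts as active if its G2 robust z-score lies at least 5 MADs above the screen median; here such calls match roughly 38% of GMNN control or more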
# This is a random part of about 59,000 reagents tested. In the full data, about 1,550 (2.6%) got an active call. 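G2 share is only a proxy for re-replication; each gene was hit by three separate siRNAs, and active genes were retested.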 The raw values are shown without normalisation. Not given: the amount of reagent.
target gene,PubChem SID,G2 robust z-score,"G2 cells, % of GMNN control",raw share of cells in G2 (%),call
VSIG2 (V-set and immunoglobulin domain containing 2),SID160736610,3.47,27.4,14.7,inactive
VSIG2 (V-set and immunoglobulin domain containing 2),SID160736611,1.7,14.9,10.4,inactive
VSIG2 (V-set and immunoglobulin domain containing 2),SID160736612,1.7,14.9,8.52,inactive
GABPB2 (GA binding protein transcription factor subunit beta 2),SID160756505,0.669,7.67,7.07,inactive
GABPB2 (GA binding protein transcription factor subunit beta 2),SID160756506,-0.837,-2.92,2.18,inactive
GABPB2 (GA binding protein transcription factor subunit beta 2),SID160756507,1.91,16.4,8.52,inactive
FAM107A (family with sequence similarity 107 member A),SID160730108,1.95,16.7,11.5,inactive
FAM107A (family with sequence similarity 107 member A),SID160730109,0.757,8.29,7.56,inactive
FAM107A (family with sequence similarity 107 member A),SID160730110,1.76,15.3,8.92,inactive
DHRS3 (dehydrogenase/reductase 3),SID160721812,1.02,10.1,8.34,inactive
DHRS3 (dehydrogenase/reductase 3),SID160721813,4.79,36.7,18.1,inactive
DHRS3 (dehydrogenase/reductase 3),SID160721815,-0.423,-0.0111,4.53,inactive
SMIM8 (small integral membrane protein 8),SID160745712,-0.269,1.07,4.77,inactive
SMIM8 (small integral membrane protein 8),SID160745713,2.5,20.6,14.3,inactive
SMIM8 (small integral membrane protein 8),SID160745714,-1.14,-5.08,1.42,inactive

4 entries already listed, arranged by “G2 cells, % of GMNN control”, highest first.
target gene,PubChem SID,G2 robust z-score,"G2 cells, % of GMNN control",raw share of cells in G2 (%),call
FAM107A (family with sequence similarity 107 member A),SID160730108,1.95,16.7,11.5,inactive
FAM107A (family with sequence similarity 107 member A),SID160730110,1.76,15.3,8.92,inactive
DHRS3 (dehydrogenase/reductase 3),SID160721812,1.02,10.1,8.34,inactive
FAM107A (family with sequence similarity 107 member A),SID160730109,0.757,8.29,7.56,inactive

Continued:
target gene,PubChem SID,G2 robust z-score,"G2 cells, % of GMNN control",raw share of cells in G2 (%),call
CHST15 (carbohydrate sulfotransferase 15),SID160740679,3.82,29.8,15.3,inactive
CHST15 (carbohydrate sulfotransferase 15),SID160740680,-0.533,-0.783,3.5,inactive
CHST15 (carbohydrate sulfotransferase 15),SID160740681,-0.0771,2.42,7.05,inactive
APCDD1 (APC down-regulated 1),SID160758517,-0.162,1.83,4.44,inactive
APCDD1 (APC down-regulated 1),SID160758518,0.398,5.77,4.69,inactive
APCDD1 (APC down-regulated 1),SID160758519,-0.423,-0.00887,3.07,inactive
"PCDHAC1 (protocadherin alpha subfamily C, 1)",SID160744850,0.837,8.86,10.3,inactive
"PCDHAC1 (protocadherin alpha subfamily C, 1)",SID160744851,-1.15,-5.12,2.61,inactive
"PCDHAC1 (protocadherin alpha subfamily C, 1)",SID160744852,3.65,28.7,16.3,inactive
SOHLH1,SID160767443,4.56,35,16.6,inactive
SOHLH1,SID160767444,-0.117,2.14,4.37,inactive
SOHLH1,SID160767445,-0.602,-1.27,4.27,inactive
PSIP1 (PC4 and SRSF1 interacting protein 1),SID160730101,-0.951,-3.72,2.59,inactive
PSIP1 (PC4 and SRSF1 interacting protein 1),SID160730102,1.75,15.3,12.5,inactive
PSIP1 (PC4 and SRSF1 interacting protein 1),SID160730103,0.695,7.86,6.78,inactive
